The list shows only some results of the screen, not a fair sample: it gathers tests that were run many times, whatever their T/C, doses with no T/C, and many T/C values between a quarter and a half above the control. Further doses and runs are listed elsewhere. T/C: endpoint of the treated group in % of that of the vehicle group. Some doses have a count of surviving animals in place of a T/C: the source holds a T/C of zero for them, seemingly a mark for toxic or unscored doses. Some doses without a T/C left all or most animals alive at the check, yet need not have been tolerated: survival well below the control is almost never listed, so the zero probably covers shortened survival too. Survivors were counted at the toxicity check, usually on the fifth day, unless a day is given; later deaths do not show. Schedules are NCI's codes, read here as Q, the interval in days (D) or hours (H), X, the number of doses. Some molecules as drawn cover several salts, stereoisomers or complexes of the source; a dose is that of the sample tested. For survival time, the PubChem record calls one and a half times the control and up active, and a quarter to a half above the control has no call in these data; cut-offs in other NCI protocols can differ. Some T/C values carry the count of animals alive at the toxicity check (mostly the fifth day); without a count, all were alive then. Some entries hold several experiments; the values are given in rising order. Counts like (3×) count equal records among those shown.
Test system: BDF1 mice, B16 melanoma ip, median survival T/C
Experiment: NCI In Vivo Anticancer Drug Screen. Data for tumor model B16 Melanoma (intraperitoneal) in B6D2F1 (BDF1) mice
Details: T/C endpoint: median survival time, higher T/C = longer survival
Description: The antitumor activity of compounds was measured in mice bearing transplantable tumors. Survival or tumor size were measured and the results are expressed as the measurement made in the treated group (T) divided by the measurement made in the vehicle treated control group (C). The tumor model used in this assay is B16 Melanoma (intraperitoneal) in B6D2F1 (BDF1) mice

[1] = dose: 25.0 mg/kg/injection, schedule: Q01DX009 (ip), vehicle: saline with Tween-80
[2] = dose: 400.0 mg/kg/injection, schedule: Q01DX009 (ip), vehicle: saline with Tween-80
[3] = dose: 25.0 mg/kg/injection, schedule: Q01DX009 (ip), vehicle: Klucel (hydroxypropylcellulose) (HPC)
[4] = dose: 50.0 mg/kg/injection, schedule: Q01DX009 (ip), vehicle: Klucel (hydroxypropylcellulose) (HPC)
[5] = dose: 100.0 mg/kg/injection, schedule: Q01DX009 (ip), vehicle: Klucel (hydroxypropylcellulose) (HPC)

## Cc1c(N)nc([C@H](CC(N)=O)NC[C@H](N)C(N)=O)nc1C(=O)N[C@H](C(=O)N[C@H](C)[C@@H](O)[C@H](C)C(=O)N[C@H](C(=O)NCCc1nc(-c2nc(C(=O)NCCC[S+](C)C)cs2)cs1)[C@@H](C)O)C(OC1OC(CO)C(O)C(O)C1OC1OC(CO)C(O)C(OC(N)=O)C1O)c1cnc[nH]1 (stereo partly specified)
dose: 0.5 mg/kg/injection, schedule: Q01DX009 (ip), vehicle: saline
  T/C: 100, 104, 106, 107 % of control
dose: 1.0 mg/kg/injection, schedule: Q01DX009 (ip), vehicle: saline
  T/C: 92, 102, 107, 111, 132 % of control
dose: 2.0 mg/kg/injection, schedule: Q01DX009 (ip), vehicle: saline, evaluated on day 5
  T/C: 106, 108, 110, 116, 118 % of control
dose: 2.0 mg/kg/injection, schedule: Q01DX009 (ip), vehicle: saline, evaluated on day 60
  T/C: 106 % of control
dose: 3.0 mg/kg/injection, schedule: Q01DX009 (ip), vehicle: saline, evaluated on day 45
  T/C: 105 % of control
dose: 3.0 mg/kg/injection, schedule: Q01DX009 (ip), vehicle: saline, evaluated on day 60
  T/C: 92, 95, 104 (2×), 105, 107 (3×), 111 (2×), 121, 123 % of control
dose: 3.0 mg/kg/injection, schedule: Q01DX009 (ip), vehicle: saline
  survivor count: 6 of 6
dose: 4.0 mg/kg/injection, schedule: Q01DX009 (ip), vehicle: saline, evaluated on day 5
  T/C: 97, 107, 110, 117, 137 % of control
dose: 4.0 mg/kg/injection, schedule: Q01DX009 (ip), vehicle: saline, evaluated on day 60
  T/C: 105 and 106 % of control
dose: 6.0 mg/kg/injection, schedule: Q01DX009 (ip), vehicle: saline, evaluated on day 45
  T/C: 111 % of control
dose: 6.0 mg/kg/injection, schedule: Q01DX009 (ip), vehicle: saline, evaluated on day 60
  T/C: 89 [5 of 6 alive], 90, 92, 107, 108, 109 (2×), 114, 116, 119, 121 (2×), 143 % of control
dose: 8.0 mg/kg/injection, schedule: Q01DX009 (ip), vehicle: saline, evaluated on day 5
  T/C: 98, 103, 108, 128, 142 % of control
dose: 8.0 mg/kg/injection, schedule: Q01DX009 (ip), vehicle: saline, evaluated on day 60
  T/C: 102 and 109 % of control
dose: 12.0 mg/kg/injection, schedule: Q01DX009 (ip), vehicle: saline, evaluated on day 45
  T/C: 102 % of control
dose: 12.0 mg/kg/injection, schedule: Q01DX009 (ip), vehicle: saline, evaluated on day 60
  T/C: 86, 92, 97, 104, 104 [5 of 6 alive], 105, 106, 107, 114 [5 of 6 alive], 116, 121, 122, 123 % of control
dose: 16.0 mg/kg/injection, schedule: Q01DX009 (ip), vehicle: saline, evaluated on day 5
  T/C: 108 (2×), 113, 114, 134 % of control
dose: 16.0 mg/kg/injection, schedule: Q01DX009 (ip), vehicle: saline, evaluated on day 60
  T/C: 111 and 115 % of control
dose: 24.0 mg/kg/injection, schedule: Q01DX009 (ip), vehicle: saline, evaluated on day 45
  T/C: 97 % of control
dose: 24.0 mg/kg/injection, schedule: Q01DX009 (ip), vehicle: saline, evaluated on day 60
  T/C: 88, 91, 94 [5 of 6 alive], 95, 102, 109, 115, 116, 125, 134 % of control
dose: 24.0 mg/kg/injection, schedule: Q01DX009 (ip), vehicle: saline
  survivor count: 6 of 6
dose: 31.3 mg/kg/injection, schedule: Q01DX009 (ip), vehicle: saline
  survivor count: 6 of 6
dose: 32.0 mg/kg/injection, schedule: Q01DX009 (ip), vehicle: saline, evaluated on day 5
  T/C: 50, 51, 63, 77 % of control
dose: 32.0 mg/kg/injection, schedule: Q01DX009 (ip), vehicle: saline, evaluated on day 60
  T/C: 117 % of control
dose: 32.0 mg/kg/injection, schedule: Q01DX009 (ip), vehicle: saline
  survivor count: 10 of 10
dose: 62.5 mg/kg/injection, schedule: Q01DX009 (ip), vehicle: saline
  survivor count: 5 of 6
dose: 64.0 mg/kg/injection, schedule: Q01DX009 (ip), vehicle: saline
  T/C: 32, 33, 41, 55 % of control
dose: 125.0 mg/kg/injection, schedule: Q01DX009 (ip), vehicle: saline
  survivor count: 5 of 6
dose: 250.0 mg/kg/injection, schedule: Q01DX009 (ip), vehicle: saline
  survivor count: 4 of 6

## CCCCC(CC)C(O)C1CCCCC1O (stereo unspecified)
dose: 400.0 mg/kg/injection, schedule: Q01DX009 (ip), vehicle: Klucel (hydroxypropylcellulose) (HPC)
  survivor count: 4 of 6

## OCC1OC(n2cnc3c(=S)nc[nH]c32)CC1O (stereo unspecified)
dose: 200.0 mg/kg/injection, schedule: Q01DX009 (ip), vehicle: Klucel (hydroxypropylcellulose) (HPC)
  survivor count: 10 of 10

## Nc1nc(N)c2c(ccc3c2ccn3Cc2cccc([N+](=O)[O-])c2)n1
dose: 12.5 mg/kg/injection, schedule: Q01DX009 (ip), vehicle: saline with Tween-80
  survivor count: 10 of 10
[1]
  survivor count: 10 of 10

## C[N+](C)(CCO)Cc1ccccc1
[1]
  survivor count: 10 of 10

## CN(C)CC/C=C1\c2ccccc2CN(C)c2ccccc21
dose: 50.0 mg/kg/injection, schedule: Q01DX009 (ip), vehicle: saline with Tween-80
  survivor count: 3 of 10
dose: 100.0 mg/kg/injection, schedule: Q01DX009 (ip), vehicle: saline with Tween-80
  survivor count: 0 of 10
dose: 100.0 mg/kg/injection, schedule: Q01DX009 (ip), vehicle: saline
  survivor count: 10 of 10
dose: 200.0 mg/kg/injection, schedule: Q01DX009 (ip), vehicle: saline with Tween-80
  survivor count: 0 of 10
[2]
  survivor count: 0 of 10

## COc1cc(NS(C)(=O)=O)ccc1Nc1c2ccc(Cl)cc2nc2c(OC)cccc12
dose: 1.5 mg/kg/injection, schedule: Q01DX009 (ip), vehicle: saline with Tween-80
  T/C: 144 % of control
dose: 2.25 mg/kg/injection, schedule: Q04DX003 (ip), vehicle: water
  T/C: 129 % of control
dose: 4.5 mg/kg/injection, schedule: Q04DX003 (ip), vehicle: water
  T/C: 142 % of control
dose: 13.0 mg/kg/injection, schedule: Q01DX005 (iv), vehicle: water
  survivor count: 10 of 10
dose: 18.0 mg/kg/injection, schedule: Q01DX009 (ip), vehicle: other
  survivor count: 10 of 10
dose: 18.0 mg/kg/injection, schedule: Q01DX009 (ip), vehicle: saline with Tween-80
  survivor count: 10 of 10
dose: 26.0 mg/kg/injection, schedule: Q01DX005 (iv), vehicle: water
  survivor count: 6 of 10
dose: 26.0 mg/kg/injection, schedule: Q04DX003 (iv), vehicle: water
  T/C: 130 % of control [9 of 10 alive]
dose: 36.0 mg/kg/injection, schedule: Q01DX009 (ip), vehicle: other
  survivor count: 8 of 10
dose: 72.0 mg/kg/injection, schedule: Q01DX009 (ip), vehicle: other
  survivor count: 6 of 10
dose: 72.0 mg/kg/injection, schedule: Q04DX003 (ip), vehicle: water
  survivor count: 5 of 10

## COC(CBr)c1ccccc1 (stereo unspecified)
[3]
  survivor count: 10 of 10
[4]
  survivor count: 10 of 10
[5]
  survivor count: 7 of 10

## C/C(=N/N=C(N)N)c1ccc(NC(=O)Nc2ccc(/C(C)=N/N=C(N)N)cc2)cc1
[5]
  survivor count: 10 of 10

## CN(C)c1ccc2cc(S(=O)(=O)O)cc(O)c2c1
[2]
  survivor count: 6 of 6

## NC(N)=N/N=C(/c1ccccc1)c1ccc(F)cc1
dose: 160.0 mg/kg/injection, schedule: Q01DX009 (ip), vehicle: saline
  survivor count: 1 of 6

## CCN(CC)CCCC(C)Nc1cc(/C=C/c2ccc(Cl)cc2)nc2cc(N(C)C)ccc12 (stereo unspecified)
[3]
  survivor count: 2 of 10
[4]
  survivor count: 0 of 10

## N#CCC(=O)O
dose: 75.0 mg/kg/injection, schedule: Q01DX009 (ip), vehicle: saline
  survivor count: 10 of 10

## [Cl][Hg][c]1ccc2ccccc2c1
dose: 25.0 mg/kg/injection, schedule: Q01DX009 (ip), vehicle: gum acacia
  survivor count: 7 of 10
dose: 50.0 mg/kg/injection, schedule: Q01DX009 (ip), vehicle: gum acacia
  survivor count: 0 of 10

## CO[C@H]1Nc2c(ccc(C)c2O)C(=O)N2C=C(/C=C/C(N)=O)C[C@@H]12
dose: 0.8 mg/kg/injection, schedule: Q04DX003 (ip), vehicle: DMSO
  survivor count: 9 of 10
